These are yes or no findings as the source states them, for the method shown. Binding seen in cells or lysates may run through a third protein. Here binding means that the protein was enriched with, or labelled near, the bait; the list need not be complete. For some of these results: A no says only that the protein was not detected with the bait. For some of these results: Tags and fused reporters may be left off the sequences shown.

Amino acid sequences for entries named in this document (tags omitted).
UniProt P23696: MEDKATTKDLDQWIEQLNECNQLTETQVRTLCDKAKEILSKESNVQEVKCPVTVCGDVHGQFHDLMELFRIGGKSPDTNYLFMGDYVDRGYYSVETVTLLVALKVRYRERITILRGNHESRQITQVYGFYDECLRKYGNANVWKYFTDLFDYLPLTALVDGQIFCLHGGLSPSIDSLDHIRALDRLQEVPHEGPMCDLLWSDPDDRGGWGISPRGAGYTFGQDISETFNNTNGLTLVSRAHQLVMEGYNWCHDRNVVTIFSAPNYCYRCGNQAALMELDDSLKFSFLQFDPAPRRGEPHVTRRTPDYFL
UniProt Q9VMJ7: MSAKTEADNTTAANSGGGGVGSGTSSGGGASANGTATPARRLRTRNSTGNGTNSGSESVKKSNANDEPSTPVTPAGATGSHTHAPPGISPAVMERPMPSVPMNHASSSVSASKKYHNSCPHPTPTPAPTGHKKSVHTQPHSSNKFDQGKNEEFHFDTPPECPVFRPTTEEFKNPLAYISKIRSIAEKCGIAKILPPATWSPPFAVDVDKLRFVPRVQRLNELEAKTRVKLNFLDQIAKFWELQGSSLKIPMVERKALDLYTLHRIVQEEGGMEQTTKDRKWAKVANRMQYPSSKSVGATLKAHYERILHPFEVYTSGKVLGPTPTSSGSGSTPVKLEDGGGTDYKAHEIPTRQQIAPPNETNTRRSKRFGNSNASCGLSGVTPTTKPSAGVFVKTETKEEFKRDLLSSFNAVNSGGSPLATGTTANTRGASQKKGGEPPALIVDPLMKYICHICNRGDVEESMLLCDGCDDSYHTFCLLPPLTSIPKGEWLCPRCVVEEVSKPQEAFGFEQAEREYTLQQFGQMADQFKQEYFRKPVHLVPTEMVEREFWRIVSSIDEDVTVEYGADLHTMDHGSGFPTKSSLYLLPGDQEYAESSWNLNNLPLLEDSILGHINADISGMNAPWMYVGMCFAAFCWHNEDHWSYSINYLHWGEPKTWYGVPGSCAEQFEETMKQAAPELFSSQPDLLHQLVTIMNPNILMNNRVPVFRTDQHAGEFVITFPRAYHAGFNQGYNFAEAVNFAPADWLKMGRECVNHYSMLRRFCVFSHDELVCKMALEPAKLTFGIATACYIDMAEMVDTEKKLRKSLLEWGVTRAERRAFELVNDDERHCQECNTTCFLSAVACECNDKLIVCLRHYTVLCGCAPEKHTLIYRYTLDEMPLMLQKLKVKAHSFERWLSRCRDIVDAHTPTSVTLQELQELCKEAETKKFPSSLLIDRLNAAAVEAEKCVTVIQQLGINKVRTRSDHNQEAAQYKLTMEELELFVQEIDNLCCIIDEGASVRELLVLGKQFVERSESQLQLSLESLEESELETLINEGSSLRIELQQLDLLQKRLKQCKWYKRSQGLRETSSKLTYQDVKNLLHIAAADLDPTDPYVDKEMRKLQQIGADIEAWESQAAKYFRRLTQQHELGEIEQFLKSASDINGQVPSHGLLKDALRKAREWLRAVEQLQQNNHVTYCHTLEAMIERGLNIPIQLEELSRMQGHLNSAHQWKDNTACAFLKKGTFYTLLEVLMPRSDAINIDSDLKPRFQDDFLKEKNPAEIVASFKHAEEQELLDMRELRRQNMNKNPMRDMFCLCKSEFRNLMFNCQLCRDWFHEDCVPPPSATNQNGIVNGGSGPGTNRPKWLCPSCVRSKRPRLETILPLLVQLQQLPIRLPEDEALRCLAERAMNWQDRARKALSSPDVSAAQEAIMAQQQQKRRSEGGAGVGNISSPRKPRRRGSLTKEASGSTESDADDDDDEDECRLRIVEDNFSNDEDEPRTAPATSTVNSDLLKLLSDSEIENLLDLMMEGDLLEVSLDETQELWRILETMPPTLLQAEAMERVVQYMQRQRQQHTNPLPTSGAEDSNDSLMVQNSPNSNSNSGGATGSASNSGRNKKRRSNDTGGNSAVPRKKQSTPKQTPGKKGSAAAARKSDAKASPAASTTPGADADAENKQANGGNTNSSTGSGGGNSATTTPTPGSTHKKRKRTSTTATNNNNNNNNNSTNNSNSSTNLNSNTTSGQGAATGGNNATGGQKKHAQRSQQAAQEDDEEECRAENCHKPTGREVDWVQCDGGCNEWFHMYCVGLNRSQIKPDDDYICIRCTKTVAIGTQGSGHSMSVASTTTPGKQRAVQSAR
UniProt Q94517: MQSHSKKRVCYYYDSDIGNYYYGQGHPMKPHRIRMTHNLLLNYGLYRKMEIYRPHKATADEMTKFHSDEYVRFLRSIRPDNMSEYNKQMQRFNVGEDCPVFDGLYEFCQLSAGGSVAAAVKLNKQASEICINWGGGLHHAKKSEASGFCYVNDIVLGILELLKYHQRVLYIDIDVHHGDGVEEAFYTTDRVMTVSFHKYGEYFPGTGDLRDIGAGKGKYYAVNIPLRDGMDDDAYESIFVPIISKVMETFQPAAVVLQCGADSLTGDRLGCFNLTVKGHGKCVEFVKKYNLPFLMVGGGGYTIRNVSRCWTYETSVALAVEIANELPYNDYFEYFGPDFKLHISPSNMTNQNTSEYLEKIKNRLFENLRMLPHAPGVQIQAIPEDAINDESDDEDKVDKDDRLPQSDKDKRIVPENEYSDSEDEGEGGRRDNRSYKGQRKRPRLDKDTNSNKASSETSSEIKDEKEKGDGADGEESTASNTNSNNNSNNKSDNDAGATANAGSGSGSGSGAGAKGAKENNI
UniProt Q7PLI2: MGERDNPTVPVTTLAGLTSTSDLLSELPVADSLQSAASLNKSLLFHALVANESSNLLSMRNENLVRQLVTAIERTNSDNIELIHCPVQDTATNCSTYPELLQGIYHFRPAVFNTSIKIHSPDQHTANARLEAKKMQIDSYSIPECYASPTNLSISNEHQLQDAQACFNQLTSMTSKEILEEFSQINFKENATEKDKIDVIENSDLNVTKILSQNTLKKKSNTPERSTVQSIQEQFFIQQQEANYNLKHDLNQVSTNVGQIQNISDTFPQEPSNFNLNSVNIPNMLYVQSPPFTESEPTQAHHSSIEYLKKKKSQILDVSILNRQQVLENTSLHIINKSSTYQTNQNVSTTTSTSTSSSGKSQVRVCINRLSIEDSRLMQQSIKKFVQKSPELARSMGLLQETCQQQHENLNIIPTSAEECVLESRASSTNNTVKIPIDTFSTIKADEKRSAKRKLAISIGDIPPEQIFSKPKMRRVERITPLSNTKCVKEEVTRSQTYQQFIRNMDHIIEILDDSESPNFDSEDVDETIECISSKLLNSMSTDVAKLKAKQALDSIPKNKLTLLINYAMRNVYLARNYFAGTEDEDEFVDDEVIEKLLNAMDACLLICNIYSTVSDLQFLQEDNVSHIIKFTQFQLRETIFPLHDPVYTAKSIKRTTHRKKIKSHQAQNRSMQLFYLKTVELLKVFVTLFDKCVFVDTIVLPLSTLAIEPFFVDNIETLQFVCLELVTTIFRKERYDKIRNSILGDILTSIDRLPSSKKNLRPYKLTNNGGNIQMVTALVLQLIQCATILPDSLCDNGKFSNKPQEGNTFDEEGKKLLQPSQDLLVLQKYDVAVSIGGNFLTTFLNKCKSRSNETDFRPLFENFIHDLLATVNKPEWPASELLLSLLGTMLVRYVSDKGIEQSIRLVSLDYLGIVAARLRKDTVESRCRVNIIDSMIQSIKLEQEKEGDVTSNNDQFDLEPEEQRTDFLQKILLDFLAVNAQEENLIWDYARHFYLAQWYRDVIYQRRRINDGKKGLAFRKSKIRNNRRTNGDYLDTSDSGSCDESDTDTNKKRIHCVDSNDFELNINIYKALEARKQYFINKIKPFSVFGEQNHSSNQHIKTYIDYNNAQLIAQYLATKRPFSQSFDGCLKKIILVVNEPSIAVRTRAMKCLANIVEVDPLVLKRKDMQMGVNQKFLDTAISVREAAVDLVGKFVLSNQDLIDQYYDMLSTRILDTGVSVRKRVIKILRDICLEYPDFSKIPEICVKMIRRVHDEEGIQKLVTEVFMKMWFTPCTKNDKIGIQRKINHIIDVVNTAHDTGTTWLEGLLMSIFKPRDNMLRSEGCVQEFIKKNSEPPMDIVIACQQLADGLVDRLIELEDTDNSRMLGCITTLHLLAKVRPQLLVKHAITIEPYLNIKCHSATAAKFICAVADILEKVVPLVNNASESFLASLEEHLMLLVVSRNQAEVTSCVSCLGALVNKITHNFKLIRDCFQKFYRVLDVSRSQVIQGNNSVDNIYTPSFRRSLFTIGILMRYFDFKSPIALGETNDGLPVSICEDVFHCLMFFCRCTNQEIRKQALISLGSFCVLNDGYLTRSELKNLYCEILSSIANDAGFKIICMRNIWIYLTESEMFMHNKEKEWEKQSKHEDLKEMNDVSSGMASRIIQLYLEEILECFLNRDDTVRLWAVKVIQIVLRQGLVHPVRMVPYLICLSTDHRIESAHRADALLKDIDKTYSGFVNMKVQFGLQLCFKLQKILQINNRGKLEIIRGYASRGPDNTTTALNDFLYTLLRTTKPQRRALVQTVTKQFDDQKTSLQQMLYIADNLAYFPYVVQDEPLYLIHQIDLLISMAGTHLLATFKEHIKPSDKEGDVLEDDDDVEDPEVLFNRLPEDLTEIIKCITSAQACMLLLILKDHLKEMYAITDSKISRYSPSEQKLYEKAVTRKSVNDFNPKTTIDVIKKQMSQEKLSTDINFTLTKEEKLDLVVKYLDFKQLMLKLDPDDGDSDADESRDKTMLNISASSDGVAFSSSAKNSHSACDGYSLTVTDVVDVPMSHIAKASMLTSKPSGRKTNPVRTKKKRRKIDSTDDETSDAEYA

Experiment in all cases: affinity purification with mass spectrometry; NAP1, SA, SMC1 or PP2A (catalytic subunit) immunopurified from 0-12 hour Drosophila embryo nuclear extract (NAP1 and SA also from S2 cells) with antibodies cross-linked to protein A sepharose; washes with HEMG, 600 mM KCl, 0.1% NP-40; SDS-PAGE, mass spectrometry
In experiment [1] the target is T1, cohesin subunit SMC1 (Drosophila (endogenous in embryos and S2 cells)) (UniProt Q9VCD8).
T1 sequence: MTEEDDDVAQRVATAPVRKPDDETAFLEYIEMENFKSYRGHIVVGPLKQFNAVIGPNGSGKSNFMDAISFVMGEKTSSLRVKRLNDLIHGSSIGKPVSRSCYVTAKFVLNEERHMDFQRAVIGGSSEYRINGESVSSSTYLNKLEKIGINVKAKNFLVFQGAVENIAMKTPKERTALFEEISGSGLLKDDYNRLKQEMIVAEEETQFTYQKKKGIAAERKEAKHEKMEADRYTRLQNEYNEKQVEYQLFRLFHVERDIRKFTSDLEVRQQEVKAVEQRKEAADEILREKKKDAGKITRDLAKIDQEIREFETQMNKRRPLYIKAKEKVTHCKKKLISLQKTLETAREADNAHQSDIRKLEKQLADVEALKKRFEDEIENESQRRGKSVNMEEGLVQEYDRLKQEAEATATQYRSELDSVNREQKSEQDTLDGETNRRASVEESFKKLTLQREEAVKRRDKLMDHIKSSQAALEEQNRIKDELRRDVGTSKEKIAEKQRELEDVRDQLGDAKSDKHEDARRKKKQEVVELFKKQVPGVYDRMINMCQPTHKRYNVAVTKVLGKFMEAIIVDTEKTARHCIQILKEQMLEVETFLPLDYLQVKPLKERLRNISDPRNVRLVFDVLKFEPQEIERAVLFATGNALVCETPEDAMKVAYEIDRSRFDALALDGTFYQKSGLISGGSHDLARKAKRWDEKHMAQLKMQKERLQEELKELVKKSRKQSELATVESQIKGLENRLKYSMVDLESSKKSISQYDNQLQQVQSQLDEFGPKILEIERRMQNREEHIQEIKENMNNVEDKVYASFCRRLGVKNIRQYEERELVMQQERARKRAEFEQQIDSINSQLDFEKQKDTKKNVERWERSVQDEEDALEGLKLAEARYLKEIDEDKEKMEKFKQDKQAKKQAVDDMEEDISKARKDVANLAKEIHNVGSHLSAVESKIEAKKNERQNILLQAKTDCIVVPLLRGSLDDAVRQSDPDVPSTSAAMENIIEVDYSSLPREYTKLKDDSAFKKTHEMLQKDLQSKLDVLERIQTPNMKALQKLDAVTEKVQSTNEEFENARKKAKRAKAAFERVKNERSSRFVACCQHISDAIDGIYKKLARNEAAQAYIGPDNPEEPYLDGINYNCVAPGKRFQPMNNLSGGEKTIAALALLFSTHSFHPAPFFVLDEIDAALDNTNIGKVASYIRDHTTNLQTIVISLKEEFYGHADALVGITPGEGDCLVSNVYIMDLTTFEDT

The target in experiment [2] is T2, histone chaperone NAP1 (Drosophila (endogenous in embryos and S2 cells)) (UniProt Q9W1G7).
T2 sequence: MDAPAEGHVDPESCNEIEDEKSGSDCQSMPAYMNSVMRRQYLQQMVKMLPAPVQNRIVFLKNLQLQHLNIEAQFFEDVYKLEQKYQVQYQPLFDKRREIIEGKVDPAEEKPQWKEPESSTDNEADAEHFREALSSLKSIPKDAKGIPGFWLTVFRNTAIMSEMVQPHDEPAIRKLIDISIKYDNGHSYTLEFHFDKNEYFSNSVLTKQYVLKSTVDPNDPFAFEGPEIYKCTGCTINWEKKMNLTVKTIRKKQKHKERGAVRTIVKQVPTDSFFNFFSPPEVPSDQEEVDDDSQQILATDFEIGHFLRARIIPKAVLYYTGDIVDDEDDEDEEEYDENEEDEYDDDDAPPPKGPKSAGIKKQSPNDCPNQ

The target of experiment [3] is protein phosphatase 2A (PP2A) catalytic subunit (Drosophila (endogenous in embryos and S2 cells)) (UniProt P23696).

With LID (from UniProt Q9VMJ7 1-1838), the binding result in experiment [1] is “no binding”; in experiment [2], “binds”.

For the substance “PF1 (Drosophila (endogenous in embryos))”, the values for the binding result in experiment [1] and in experiment [2] were “no binding” and “binds”, respectively. The corresponding values for “SIN3A (Drosophila (endogenous in embryos))” are “no binding” and “binds”. With RPD3 (from UniProt Q94517 1-521), the binding entry in experiment [1] is recorded as “no binding”; in experiment [2], “binds”.

“Nipped-B/SCC2 (from UniProt Q7PLI2 1-2077)”: the binding entry in experiment [1] and in experiment [3] was “binds” each time. Turning to “cohesin subunit RAD21 (Drosophila (endogenous in embryos))”, the binding entry in experiment [2] was “binds”. For the substance cohesin subunit stromalin (SA), the binding entry in experiment [1] and in experiment [2] was “binds” in each case. “EMSY (Drosophila (endogenous in embryos))”: the values for the binding entry in experiment [1] and in experiment [2] were “no binding” and “binds”, respectively. With “protein phosphatase 2A (PP2A) catalytic subunit (from UniProt P23696 1-309) (enzyme)”, the binding result in experiment [1] is recorded as “binds”.

The values are drawn from article PMC3784504.
